Binding data for one molecule are collected here from US20060121483A1, “Methods for detecting teneurin signalling and related screening methods” (priority 2002, published 2006).

Results are given in words; binding and its absence hold for the method and conditions named. Some entries that bind do so weakly or less than the wild type.

This assay addresses T1, third SH3 domain of ponsin (interacting cDNA clone from a whole mouse 19day embryo DupLex-A cDNA library) (mouse) (UniProt Q62417).
T1 sequence (looked up): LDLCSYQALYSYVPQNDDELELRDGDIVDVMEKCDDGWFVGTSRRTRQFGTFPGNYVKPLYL
Kind of assay: yeast two-hybrid screen (DupLEX-A), mouse 19day embryo cDNA library.

B1: Ten-1b (aminoacids 156-300 of teneurin-1) (protein, chicken, UniProt Q9W6V6 156-300, looked up, not shown: large carriers)
chain: DGENDMPGSPHNQFTFRPLPPPPPPPHACTCTRKPPPAADSLQRRSMTTRSQPSPAAPTPPTSTQDSVHLHNSWVLNSNIPLETRHFLFKHGSGSSAIFSAASQNYPLTSNTVYSPPPRPLPRNTFSRPAFTFSKPYRCCNWKCT
In the case of B1, the binding entry is “binds”.
